No constants are given. Whether binding was seen depends on the method and setting. Some results given as binding are weak or reduced against the parent protein; the word gives no strength. Tags and fused reporters may be left off the sequences shown.

Protein sequences, listed by entry. Tags and fused reporters are not part of them.
UniProt Q9UGN5: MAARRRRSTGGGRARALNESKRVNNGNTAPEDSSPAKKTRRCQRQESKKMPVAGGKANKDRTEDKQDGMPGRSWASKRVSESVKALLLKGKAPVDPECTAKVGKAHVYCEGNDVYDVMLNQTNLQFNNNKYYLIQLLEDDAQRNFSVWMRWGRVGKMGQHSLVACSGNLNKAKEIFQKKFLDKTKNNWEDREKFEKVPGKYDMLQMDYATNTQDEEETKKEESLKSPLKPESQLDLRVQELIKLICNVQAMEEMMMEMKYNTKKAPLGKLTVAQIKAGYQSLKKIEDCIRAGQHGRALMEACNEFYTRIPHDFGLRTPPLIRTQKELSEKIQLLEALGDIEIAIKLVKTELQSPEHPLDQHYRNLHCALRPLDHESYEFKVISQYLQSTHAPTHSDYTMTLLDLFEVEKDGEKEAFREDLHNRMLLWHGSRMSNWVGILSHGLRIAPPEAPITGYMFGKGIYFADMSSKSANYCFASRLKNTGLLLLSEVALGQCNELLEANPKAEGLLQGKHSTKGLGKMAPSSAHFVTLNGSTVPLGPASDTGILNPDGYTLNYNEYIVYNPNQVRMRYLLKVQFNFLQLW

The test concerns the target T1, CFP-MtbDarG MD (mCerulean-fused macrodomain of Mycobacterium tuberculosis DNA ADP-ribosylglycohydrolase DarG) (M. tuberculosis) (UniProt O53605).
T1 sequence: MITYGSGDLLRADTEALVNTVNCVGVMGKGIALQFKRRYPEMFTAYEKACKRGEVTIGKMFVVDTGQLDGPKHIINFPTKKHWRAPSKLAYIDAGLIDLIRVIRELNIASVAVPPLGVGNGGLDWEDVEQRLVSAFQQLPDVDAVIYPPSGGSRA
Nature of the test: FRET or BRET. Background: BRET reads energy transfer from a luciferase to a nearby fluorophore.

For the substance “PARylated PARP2 (from UniProt Q9UGN5 1-583) (enzyme)”, the binding entry was “binds”.

These data come from paper doi:10.1101/2025.07.02.662713.
